Measurements taken from paper PMC12594597.
These are yes or no findings as the source states them, for the method shown. In cells and extracts the contact can be indirect. Some entries that bind do so weakly or less than the wild type.

Protein sequences, listed by entry. Tags and fused reporters are not part of them.
UniProt Q14258: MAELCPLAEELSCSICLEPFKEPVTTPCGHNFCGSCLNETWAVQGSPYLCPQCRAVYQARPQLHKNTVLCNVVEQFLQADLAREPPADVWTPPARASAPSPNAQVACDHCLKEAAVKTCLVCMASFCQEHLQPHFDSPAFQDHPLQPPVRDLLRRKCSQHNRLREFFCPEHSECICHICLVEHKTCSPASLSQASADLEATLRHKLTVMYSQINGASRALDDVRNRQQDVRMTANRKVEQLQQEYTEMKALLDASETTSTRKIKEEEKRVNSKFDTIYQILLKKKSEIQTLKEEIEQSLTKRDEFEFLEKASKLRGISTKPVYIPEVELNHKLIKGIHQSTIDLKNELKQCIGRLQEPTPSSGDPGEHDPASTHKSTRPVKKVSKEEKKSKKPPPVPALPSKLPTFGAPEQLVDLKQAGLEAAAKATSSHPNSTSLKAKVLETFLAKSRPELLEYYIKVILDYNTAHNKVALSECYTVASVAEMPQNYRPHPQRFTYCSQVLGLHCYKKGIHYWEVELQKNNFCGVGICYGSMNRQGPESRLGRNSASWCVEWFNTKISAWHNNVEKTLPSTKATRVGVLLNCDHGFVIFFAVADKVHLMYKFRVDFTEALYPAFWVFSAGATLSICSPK

What was measured:
[1] = molecular target: T1, CPT1A overexpressed in HEK293T cells (human) (UniProt P50416); assay: co-IP; HEK293T cells transfected with or without Flag-DPP7, or with different concentrations of exogenous Flag-DPP7; binding of TRIM25 to CPT1A by immunoblot
T1 sequence: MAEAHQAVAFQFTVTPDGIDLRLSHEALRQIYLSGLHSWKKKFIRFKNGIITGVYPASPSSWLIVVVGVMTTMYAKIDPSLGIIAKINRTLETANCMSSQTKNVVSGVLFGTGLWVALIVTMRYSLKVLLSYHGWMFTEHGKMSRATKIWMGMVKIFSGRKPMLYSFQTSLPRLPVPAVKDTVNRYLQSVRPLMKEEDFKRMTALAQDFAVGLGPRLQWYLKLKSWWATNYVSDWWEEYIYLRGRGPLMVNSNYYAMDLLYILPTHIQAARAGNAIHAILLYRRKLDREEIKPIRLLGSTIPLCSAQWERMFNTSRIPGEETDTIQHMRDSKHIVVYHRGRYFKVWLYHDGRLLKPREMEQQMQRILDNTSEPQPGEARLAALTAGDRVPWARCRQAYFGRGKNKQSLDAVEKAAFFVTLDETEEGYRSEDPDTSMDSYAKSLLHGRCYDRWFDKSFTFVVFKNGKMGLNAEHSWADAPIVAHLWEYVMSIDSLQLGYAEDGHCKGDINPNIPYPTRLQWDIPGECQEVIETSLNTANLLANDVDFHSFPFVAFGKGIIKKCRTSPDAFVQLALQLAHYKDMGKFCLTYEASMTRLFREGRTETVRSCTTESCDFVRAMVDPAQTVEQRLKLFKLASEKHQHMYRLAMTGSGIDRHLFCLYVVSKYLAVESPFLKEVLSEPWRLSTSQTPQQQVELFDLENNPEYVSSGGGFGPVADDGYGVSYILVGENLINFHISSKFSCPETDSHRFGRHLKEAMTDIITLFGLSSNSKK

[2] = molecular target: T2, Carnitine Palmitoyltransferase 1A (CPT1A) (human (endogenous in THP-1)) (UniProt P50416); assay: co-IP; endogenous proteins in THP-1-differentiated macrophages; lysates with specific antibodies overnight at 4 °C, protein A/G beads, immunoblot
T2 sequence: T1 sequence

Substance	binding [1]	binding [2]
TRIM25 in HEK293T cells (from UniProt Q14258 1-630)	binds	
TRIM25 (tripartite motif-containing 25) (from UniProt Q14258 1-630)		binds
